PubChem BioAssay AID493014 (National Center for Advancing Translational Sciences (NCATS), 2011)
This is one part of the list. Further columns of the screen follow, without active or inactive calls. The list favours compounds with an active or inconclusive main result. Potencies come from curve fits of mixed quality, noted in brackets.

Test: qHTS Assay to Find Inhibitors of Chronic Active B-Cell Receptor Signaling
Settings: ABC-DLBCL IkBa-CBG/CBR reporter, luminescence ratio (green luciferase fused to IkBa over red control in TMD8 lymphoma cells), 4 h
Procedure, shortened: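 Compounds up to 46 uM were incubated four hours with TMD8 cells whose green CBG68 luciferase is fused to IkappaBalpha; red CBR luminescence normalised the signal, and concentration-effect curves were fitted to fusion, red and ratio data.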

[1] = measured here: CBR red luminescence, cell number
[2] = measured here: IkBa-CBG green luminescence

SMILES	AC50 [1]	AC50 [2]
O=C(CC1CCCC1)NNC(=O)c1ccc(Br)cc1	29.1 µM [rising, single point]	–
CCCNC(=O)Cn1c(=O)/c(=C\c2ccc(-c3cccc([N+](=O)[O-])c3)o2)s/c1=C\C(=O)C(C)(C)C	25.9 µM [rising, single point]	–
CCOc1ccc(NC(=S)N(CCc2ccncc2)C(C)C)cc1	35.5 µM [rising, single point]	–
COC(=O)c1[nH]c2ccc(C)cc2c1NC(=O)CN1CCN(c2ccccc2)CC1	0.92 µM [rising, full curve]	2.31 µM [falling, partial curve, poor fit]
CC(C)N(Cc1ccccc1)CC(O)COc1ccc(S(=O)(=O)N2CCOCC2)cc1Cl (stereo not drawn)	35.5 µM [falling, single point]	–
CCOC(=O)c1c(-c2ccc(C)o2)csc1NC(=S)NC(=O)c1cccs1	–	14.6 µM [rising, partial curve, poor fit]
Oc1cc2c(cc1O)[C@H]1c3ccc(O)c(O)c3OC[C@@]1(O)C2	14.6 µM [falling, single point]	–
O=C(N/N=C/c1cccs1)c1cc(-c2ccncc2)nc2ccccc12	18.4 µM [rising, partial curve]	9.2 µM [falling, partial curve]
CC(OC(=O)c1cc(O)c2ccccc2c1O)C(=O)Nc1ccc(C(N)=O)cc1 (stereo not drawn)	20.6 µM [falling, partial curve]	–
O=C(Nc1nc2ccc(Cl)cc2s1)c1ccco1	4.11 µM [falling, full curve]	–
O=C(NNC(=O)c1ccc([N+](=O)[O-])cc1)c1ccncc1	18.4 µM [falling, partial curve, poor fit]	–
Cc1ccc(NC(=O)NCc2ccccn2)cc1	35.5 µM [falling, single point]	–
Cc1cc(S(=O)(=O)n2cnc3cc([N+](=O)[O-])ccc32)ccc1Cl	29.1 µM [falling, single point]	–
Cc1sc(C(C2C(=O)CC(C)(C)CC2=O)C2C(=O)CC(C)(C)CC2=O)cc1[N+](=O)[O-]	35.5 µM [rising, single point]	–
Cc1cccc(CS(=O)(=O)c2cn(CC(=O)N3CCOCC3)c3ccccc23)c1	15.8 µM [falling, single point]	–
O=C(CSc1nnc(-c2cccs2)n1Cc1ccco1)Nc1ccc2c(c1)OCO2	11.2 µM [falling, partial curve, poor fit]	–
Cc1c(NS(=O)(=O)c2ccccc2)cc(Cl)c(O)c1C	0.58 µM [falling, full curve]	0.58 µM [rising, full curve, poor fit]
CCOc1cc(/C=N/NC(=O)CN2CCCCC2)ccc1OCc1ccc(Cl)cc1	9.2 µM [rising, partial curve, poor fit]	–
O=C(NCCN1CCOCC1)c1ccccc1N1C(=O)[C@@H]2Cc3c([nH]c4ccccc34)C(c3ccc(F)cc3)N2C1=O (stereo partly drawn)	11.2 µM [falling, partial curve, poor fit]	–
CCOC(=O)c1cccc(NC(=O)Cn2c(CC(=O)N3CCCC3)nc3ccccc32)c1	0.184 µM [falling, full curve, poor fit]	–

Record cards (already shown):
Oc1cc2c(cc1O)[C@H]1c3ccc(O)c(O)c3OC[C@@]1(O)C2 in the list: AC50 [1]: 14.6 µM [falling, single point]
Cc1sc(C(C2C(=O)CC(C)(C)CC2=O)C2C(=O)CC(C)(C)CC2=O)cc1[N+](=O)[O-] in the list: AC50 [1]: 35.5 µM [rising, single point]

The results go on.

SMILES	AC50 [1]	AC50 [2]
CCn1c2ccccc2c2nnc(SCc3ccccc3)nc21	8.2 µM [falling, partial curve]	–
COCCCNC(=O)c1c(N)n(-c2cccc(S(N)(=O)=O)c2)c2nc3ccccc3nc12	29.1 µM [rising, single point]	–
O=C(COC(=O)c1c[nH]c2ccccc12)Nc1cccc(F)c1	0.517 µM [falling, full curve, poor fit]	–
CC(O)CNC(=S)Nc1ccccc1 (stereo not drawn)	31.6 µM [rising, single point]	–
Clc1cncc(Cl)c1N/N=C/c1ccncc1	4.11 µM [falling, full curve, poor fit]	23.1 µM [falling, partial curve, poor fit]
C/C(CCc1ccc2c(c1)OCO2)=N\NC(=O)c1ccccc1	9.2 µM [falling, partial curve]	–
C=CCc1c(C)nc(SC)nc1Nc1ccc(C(=O)O)cc1	29.1 µM [falling, partial curve, poor fit]	–
Cc1cc(C)nc(Nc2cccc(C(F)(F)F)c2)n1	0.355 µM [rising, full curve, poor fit]	–
Cc1cc(C)cc(-n2c3nc4ccccc4nc3c3c(=O)n(Cc4ccco4)cnc32)c1	0.651 µM [falling, partial curve, poor fit]	–
CCOC(=O)c1[nH]c2c(c1-c1ccccc1)C(=O)CC(c1ccc(Cl)cc1)C2 (stereo not drawn)	16.4 µM [rising, partial curve]	–
O=C1Cc2cccc3cccc1c23	0.731 µM [rising, full curve, poor fit]	–
O=C(CC1C(=O)NCCN1C(=O)Nc1ccc(C(F)(F)F)cc1)Nc1ccc(F)cc1 (stereo not drawn)	25.1 µM [falling, single point]	–
CCOc1ccc(-c2nc(C)sc2CC(=O)O)cc1	0.0291 µM [falling, full curve, poor fit]	–
Cc1cc(C(=O)N/N=C/c2ccco2)n[nH]1	14.1 µM [falling, partial curve, poor fit]	–
O=C(Nc1cc(=O)[nH]c2ncnn12)c1ccc(Cl)cc1Cl	35.5 µM [falling, single point]	–
O=C(COC(=O)C1C2CC3OC(=O)C1C3C2)Nc1ccccc1 (stereo not drawn)	0.112 µM [falling, full curve, poor fit]	–
O=C(O)c1ccccc1-n1c(-c2ccccc2)cc2c1CCCC2=O	12.6 µM [falling, single point]	–
COc1cccc(C(c2sc3nc(-c4ccco4)nn3c2O)N2CCOCC2)c1 (stereo not drawn)	12.6 µM [rising, single point]	–
COC(=O)Cn1c(=NC(=O)CSCC(=O)NC2CCCCC2)sc2cc(OC)ccc21	1.64 µM [rising, partial curve, poor fit]	–
